Test results taken from paper PMC7073147.
No constants are given. Whether binding was seen depends on the method and setting. In cells and extracts the contact can be indirect. Some results given as binding are weak or reduced against the parent protein; the word gives no strength. Tags and fused reporters may be left off the sequences shown.

Sequences of proteins named here, by UniProt entry; tags and fusion partners are left off.
UniProt P33242: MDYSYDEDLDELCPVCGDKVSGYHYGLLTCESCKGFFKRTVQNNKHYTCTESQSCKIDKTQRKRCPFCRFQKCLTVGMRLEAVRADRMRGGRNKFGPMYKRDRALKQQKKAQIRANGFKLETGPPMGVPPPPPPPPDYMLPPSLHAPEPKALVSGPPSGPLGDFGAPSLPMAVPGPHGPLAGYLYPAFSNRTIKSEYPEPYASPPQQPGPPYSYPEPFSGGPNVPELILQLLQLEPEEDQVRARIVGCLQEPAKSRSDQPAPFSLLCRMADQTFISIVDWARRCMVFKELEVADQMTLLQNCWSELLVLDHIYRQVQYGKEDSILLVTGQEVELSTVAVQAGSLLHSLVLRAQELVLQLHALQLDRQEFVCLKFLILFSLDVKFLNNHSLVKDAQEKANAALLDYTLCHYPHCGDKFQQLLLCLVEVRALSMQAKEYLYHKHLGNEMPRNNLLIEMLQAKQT
UniProt Q13285: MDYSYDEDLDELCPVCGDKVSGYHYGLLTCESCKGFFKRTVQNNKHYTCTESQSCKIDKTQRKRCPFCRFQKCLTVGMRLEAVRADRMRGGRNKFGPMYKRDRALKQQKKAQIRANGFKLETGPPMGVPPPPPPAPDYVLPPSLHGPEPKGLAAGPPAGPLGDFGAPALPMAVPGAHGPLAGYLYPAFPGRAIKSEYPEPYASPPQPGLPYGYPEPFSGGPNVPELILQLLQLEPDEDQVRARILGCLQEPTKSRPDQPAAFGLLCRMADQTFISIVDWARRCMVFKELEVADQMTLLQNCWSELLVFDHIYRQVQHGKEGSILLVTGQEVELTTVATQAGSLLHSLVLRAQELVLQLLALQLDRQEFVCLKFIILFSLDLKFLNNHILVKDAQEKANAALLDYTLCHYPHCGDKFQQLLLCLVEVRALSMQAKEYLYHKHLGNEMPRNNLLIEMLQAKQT

Target: T1, HIS-FLAG-tagged ATF3 (activating transcription factor 3) (UniProt P18847)
T1 sequence: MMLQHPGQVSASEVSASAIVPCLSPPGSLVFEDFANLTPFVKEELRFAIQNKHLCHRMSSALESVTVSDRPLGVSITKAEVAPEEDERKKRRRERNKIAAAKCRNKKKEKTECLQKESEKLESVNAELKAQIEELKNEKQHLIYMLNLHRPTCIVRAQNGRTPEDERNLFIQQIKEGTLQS
Assay: pull-down; Ni2+-NTA agarose precipitates HIS-FLAG-tagged ATF3 from lysates of transfected H1299 or Y1 cells 48 h after transfection; Sabatini lysis buffer (40 mM HEPES, 120 mM NaCl, 1% Triton X-100, 1 mM EDTA); anti-ATF3 and anti-NR5A1 immunoblotting (the legend says immunoprecipitated by anti-HIS antibody)

binding	Substance
binds	endogenous NR5A1 of Y1 cells (from UniProt P33242 1-462)
binds	HA-tagged NR5A1 (steroidogenic factor 1), wild-type (from UniProt Q13285 1-461)
